# Library screening results

The chains behind the UniProt entries cited, without tags or fusion partners.
UniProt E9BF75, entry or part of it: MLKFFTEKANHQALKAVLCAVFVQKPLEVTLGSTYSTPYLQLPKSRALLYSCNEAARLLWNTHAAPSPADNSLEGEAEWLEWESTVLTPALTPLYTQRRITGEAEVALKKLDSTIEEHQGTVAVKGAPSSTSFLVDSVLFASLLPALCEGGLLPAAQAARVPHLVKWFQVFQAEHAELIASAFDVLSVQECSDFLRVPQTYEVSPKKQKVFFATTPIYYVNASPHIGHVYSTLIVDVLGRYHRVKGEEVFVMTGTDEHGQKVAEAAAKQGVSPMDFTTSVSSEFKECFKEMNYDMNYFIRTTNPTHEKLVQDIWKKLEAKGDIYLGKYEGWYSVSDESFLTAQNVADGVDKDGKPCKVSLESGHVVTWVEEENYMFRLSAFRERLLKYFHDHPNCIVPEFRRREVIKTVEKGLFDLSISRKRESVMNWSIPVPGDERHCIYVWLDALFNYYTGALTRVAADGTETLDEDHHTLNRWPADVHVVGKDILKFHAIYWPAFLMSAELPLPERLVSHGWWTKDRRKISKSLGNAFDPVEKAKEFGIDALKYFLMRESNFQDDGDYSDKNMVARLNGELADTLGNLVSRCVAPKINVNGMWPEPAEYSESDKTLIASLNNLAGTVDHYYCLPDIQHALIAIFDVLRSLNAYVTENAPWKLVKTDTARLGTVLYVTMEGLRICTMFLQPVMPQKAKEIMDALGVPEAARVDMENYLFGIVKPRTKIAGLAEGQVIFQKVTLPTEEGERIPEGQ

Source: ChEMBL document CHEMBL3988442, “University of Dundee, Small-Polar-MMV Screening Library” (2021).

All values are in %. How 0% and 100% were set is not recorded. Most values in the screen are low, and negative values occur. The compounds are a random part of those screened. A dash means the value is not listed here; it may have been measured.

A: 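Methionyl-tRNA synthetase (putative), Leishmania donovani (UniProt E9BF75). Primary screen of methionyl-tRNA synthetase; the read-out is not stated. The test concentration is not given. Values are per cent inhibition. Of about 68,000 compounds tested this way, about 24 (0.035%) reached 50% or more in at least one test.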
B: 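Assay on Mycobacterium tuberculosis, filed only as a heat shock assay from Cornell; the read-out is not stated. The concentration is filed as 10 mM, unlikely as a test dose, so the dose is not known. Direction is inferred from retests: higher values go with stronger inhibition. About 69,000 compounds were tested under these conditions; 1.4% (about 930) showed 50% or more at least once.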

compound | A | B
COc1c(CNCCNC(=O)c2ccc(C)cc2)c(C)nn1C | 14.92 | -6.897
CCC(CO)N(Cc1ccc(F)cc1)Cc1c(C)nn(C)c1Cl (stereo not drawn) | 16.91 | -1.375
FC(F)(F)c1ccnc(N2CCCN(C3CCOCC3)CC2)c1 | 9.946 | -15.24
Cl.Cl.c1ccc(OC[C@@H]2CCC[C@@]23CNCCO3)nc1 | - | -6.285
Cn1ncc2c(=O)[nH]c(CN3CCCC3c3cccs3)nc21 (stereo not drawn) | 14.55 | 80.29
NCC1Cc2cc(Cl)cc(-c3cncc(C(=O)N4CCCCC4)n3)c2O1 (stereo not drawn) | 9.487 | 5.774
Cc1nn2c(N3CCS(=O)(=O)CC3)cc(-c3ccccc3)nc2c1C | 17.02 | 15.41
O=C(CN1CCOCC1)Nc1ccc(C(F)(F)F)cc1Cl | 4.313 | -6.171
CC(C(=O)NCc1cccc(N2CCCC2=O)c1)S(C)(=O)=O (stereo not drawn) | 1.031 | 0.6933
CC(C)N(C)[C@@H]1CCN(c2ncccn2)[C@H]1Cc1ccncc1.O=C(O)C(F)(F)F.O=C(O)C(F)(F)F | - | -38.74
O=C(O)C(F)(F)F.[H][C@@]12CCC(CNC(=O)c3ccco3)[C@@]1([H])OCCN2Cc1cccs1 (stereo partly drawn) | - | 22.99
COCCN1CC[C@@H]2CN(Cc3nccn3C)C[C@@H]2C1 | 10.67 | -
Cn1nnc2c1CCN(C(=O)C1CCC1)C2COCCN1CCCC1.O=C(O)C(F)(F)F (stereo not drawn) | - | -13.69
N#Cc1ccc(N2CCCC3(CCN(c4cncnc4)C3=O)C2)nc1.O=C(O)C(F)(F)F (stereo not drawn) | - | 24.42
CCS(=O)(=O)CCN1CCN(C2CCC(C(C)C)CC2)CC1 (stereo not drawn) | 10.59 | -27.04
CC(C)CN1C(=O)CC[C@H]2CN(C(=O)Cn3ccc(=O)cc3)CC[C@H]21 | 16.88 | -
CC1CCN(C(=O)c2cnn3c(-c4ccco4)ccnc23)CC1 | 11.49 | -7.711
CNc1nccnc1C1CCN(C(C)C)CC1 | 2.083 | -23.9
COCCc1noc(CN2CCCCC2Cn2cncn2)n1 (stereo not drawn) | 11.48 | -9.961
Cc1cccc(C(=O)N2CC(Cc3nccc4ccn(C)c34)C2)n1 | 11 | -8.789
COc1cccc(CN2CCCC3(CCN(C(=O)c4ccco4)C3)C2)c1 (stereo not drawn) | 16.5 | -24.35
CC(C)(C)C1CCC(NCCN2CCOCC2)CC1 (stereo not drawn) | 9.355 | 7.062
CN(C)C(=O)[C@H]1C[C@@H]2CCN(C3CCOCC3)C[C@@H]2O1 | 15.23 | -
Cc1cccc(C(Nc2nccc(-c3ccc(C)nc3C)n2)C2CC2)n1 (stereo not drawn) | 19.87 | 1.301
Cc1cccc(C)c1CN1C(=O)CC2(CCSC2)C1=O (stereo not drawn) | 13.98 | -31.95
COCCn1ccnc1C1CCCN(C(=O)CSc2nnc(C)o2)C1 (stereo not drawn) | 12.04 | 4.497
Clc1ccc2oc(C3CCN(Cc4nc(C5CC5)no4)CC3)nc2c1 | 6.091 | -20.61
Cc1ccc(-c2noc(C(O)CC(C)C)n2)nn1 (stereo not drawn) | 0 | 14.43
Cc1oc(-c2nc(C#N)c(NC3CC3)o2)cc1S(=O)(=O)N1CCCC1 | 11.82 | -1.847
COCC(=O)N1CCCC1c1ccc(C(=O)NCCN2CCCCC2)s1 (stereo not drawn) | 13.71 | 9.495
O=C1NC2(CCNCC2)CC1c1ccncc1 (stereo not drawn) | 7.692 | -
CC(C)N(Cc1ccc(C(F)(F)F)nc1)Cc1cnn(C)c1 | 12.06 | -6.649
CC(C)Cc1cc(CNC(=O)c2cccc3c2OCC3)no1 | 11.15 | 1.106
Cc1nn(C)c(C)c1C1CCCN1Cc1cccc(OCC(N)=O)c1 (stereo not drawn) | 14.37 | 1.558
CCc1nc(Cn2c(=O)c3c(C(F)(F)F)cc(C)nc3n2C)no1 | 6.266 | 32.54
COc1ccccc1-c1ncc(CN2C[C@H](O)[C@@H](N3CCCC3)C2)s1 | 10.65 | 7.856
CN(CC(=O)Nc1cc(C(C)(C)C)n[nH]1)S(C)(=O)=O | -0.7752 | -19.17
O=S1(=O)[C@@H](c2ccccc2)[C@H](CO)CN1C1CC1 | 13.78 | -10.96
Cc1nonc1CN(C)Cc1nc(-c2cccc(F)c2F)oc1C | 12.14 | 0.6464
CC(=O)N1CC[C@H]2OCC[C@@]2(C(=O)NCc2ccco2)C1 | 20.5 | -
CC(C)N(C)S(=O)(=O)NCc1cccnc1N(C)C | 8.906 | 16.98
Cc1cnc(NC(=O)N2CCOCC2)s1 | 10.86 | 8.779
O=C(c1ccccc1-c1ccccc1)N1C[C@@H]2CNC[C@]2(C(=O)O)C1 | 7.266 | -
NC(=O)NCC1CCCCN1C(=O)c1ccc(Br)s1 (stereo not drawn) | 9.023 | -26.8
CCN1C(=O)CCCC12CCCN(C(=O)c1ccncc1F)C2.O=C(O)C(F)(F)F (stereo not drawn) | - | 1.132
CC(C)C(NC(=O)c1nc(N2CCOCC2)ncc1Cl)c1cccs1 (stereo not drawn) | 7.357 | 30.61
CC(c1ncc(C(C)(C)C)o1)N1CCN(Cc2ccncc2)CC1 (stereo not drawn) | 8.163 | -34.42

For reference, 3 entries once more:

compound	A	B
NCC1Cc2cc(Cl)cc(-c3cncc(C(=O)N4CCCCC4)n3)c2O1 (stereo not drawn)	9.487	5.774
CN(C)C(=O)[C@H]1C[C@@H]2CCN(C3CCOCC3)C[C@@H]2O1	15.23	-
CCc1nc(Cn2c(=O)c3c(C(F)(F)F)cc(C)nc3n2C)no1	6.266	32.54